In PubChem BioAssay AID504444 (National Center for Advancing Translational Sciences (NCATS), 2011):
Among all 360,000 compounds or so, about 7,500 (2.1%) were called active. The inconclusive results got no clear call from the source; some entries with a clear call stand among them for comparison. Calls come from the whole dose curve; as a rule, active = well fitted inhibition curve with a large enough effect; inconclusive = small, poorly fitted or top-dose-only effect, or effect the other way; inactive = flat fitted curve, though single readings scatter. Potencies beside an inconclusive call are fits to weak or partial responses and may not hold up.
Potency is the fitted concentration of half-maximal effect.

Assay: Nrf2 qHTS screen for inhibitors; note: nearly all actives have a fitted effect of over 60% in size
Details: A549 ARE-Fluc reporter, luciferase luminescence, 18-24 h; series mostly up to 46 µM
Summary of the method: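 Nrf2 function is reported as luminescence of an ARE-controlled luciferase in A549 cells. Compounds were tested at several concentrations, and a CellTiter-Fluor read on the same wells flagged cytotoxicity.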
For `O=C(O)c1ccc2nc(-c3ccco3)c(-c3ccco3)nc2c1`, the Potency was “inactive”.
For `COc1cc(NC(=O)CC(C)S(=O)(=O)c2cc3c4c(c2)CCN4C(=O)CC3)cc(OC)c1` (centres undefined), the Potency was inconclusive: 29.1 µM [activator, single point].
For `COc1ccc(C(=O)NCC(=O)OC2CCCCC2=O)cc1` (centres undefined), the Potency was inconclusive: 23.1 µM [activator, single point].
In the case of `COc1ccccc1CNS(=O)(=O)c1cccc(S(=O)(=O)N2CCOCC2)c1`, the Potency is reported as inconclusive: 0.731 µM [activator, full curve, poor fit].
For `O=C(/C=C/c1ccccc1F)c1ccoc1`, the Potency was “inactive”.
With `COc1ccc(CNC(=O)C2CC(c3ccc(C(F)(F)F)cc3)=NO2)cc1` (centres undefined) the Potency was inconclusive: 32.6 µM [falling, partial curve, poor fit].
In the case of `CN(C)/C=N/c1nc(-c2ccc3ccccc3c2)cs1`, the Potency is reported as inconclusive: 8.2 µM [activator, partial curve].
In the case of `CC(=O)c1ccc(N2CCN(C(=O)c3ccc(C(=O)c4ccccc4)cc3)CC2)cc1`, the Potency is reported as inconclusive: 18.4 µM [falling, single point].
For `CC(=O)c1sc(NC(=O)COc2ccc(Cl)cc2Cl)nc1C`, the Potency was inconclusive: 2.31 µM [activator, full curve, poor fit].
With `Cc1nc2ccccn2c1C(=O)Nc1ccc(Cl)cc1` the Potency was inconclusive: 18.4 µM [activator, single point].
In the case of `CN(C)c1ccc(C(=O)c2ccccc2)cc1`, the Potency is reported as inconclusive: 10.3 µM [activator, partial curve].
In the case of `N#CC1C=Cc2c(ccc3ccccc23)N1C(=O)c1ccccc1` (centres undefined), the Potency is reported as inconclusive: 18.4 µM [falling, partial curve, poor fit].
For `C=C1CCN(C(CC(C)C)C(=O)NCc2ccc(Cl)c(Cl)c2)S(=O)(=O)c2ccccc21` (centres undefined), the Potency was inconclusive: 29.1 µM [falling, single point].
With `O=C(NC12CC3CC(CC(C3)C1)C2)c1ccc(-c2ccc(Cl)cc2)o1` the Potency was inconclusive: 11.6 µM [activator, partial curve].
For `Clc1ccccc1OCc1nnc(-c2ccccc2)o1`, the Potency was inconclusive: 9.2 µM [activator, partial curve].
With `CC1=CC(c2ccccc2)n2nc(NS(=O)(=O)c3ccc(C)cc3)nc2N1` (centres undefined) the Potency was “inactive”.
In the case of `N#CCC(=O)Nc1ccc(C(=O)OCC(=O)N2CCN(C(=O)c3ccco3)CC2)cc1`, the Potency is reported as “inactive”.
For `N/C(=N\c1nc(CSc2nc3ccccc3s2)cc(=O)[nH]1)Nc1ccc(F)cc1`, the Potency was “inactive”.
With `NC(=O)C1(N2CCCCC2)CCN(S(=O)(=O)c2cc(Cl)sc2Cl)CC1` the Potency was “inactive”.
For `CC(C)c1ccc(NC(=O)C(Cc2ccccc2)NS(=O)(=O)c2ccc3c(c2)CCC(=O)N3)cc1` (centres undefined), the Potency was inconclusive: 3.66 µM [activator, single point].
For `CC(=O)Nc1ccc(S(=O)(=O)N(C)CC(=O)NC2CCCC(C)C2C)cc1` (centres undefined), the Potency was “inactive”.
For `CSc1ccc(/C=N/N2CCN(Cc3ccccc3)CC2)cc1`, the Potency was inconclusive: 20.6 µM [activator, single point].
With `FC(F)(F)c1nnc2c(Sc3ccccc3)nc3ccccc3n12` the Potency was inconclusive: 9.2 µM [activator, partial curve, poor fit].
In the case of `CSc1nc2ccc(NC(=O)c3c(F)cccc3F)cc2s1`, the Potency is reported as inconclusive: 2.91 µM [activator, single point].
For `COc1ccc(S(=O)(=O)Nc2ccc3c(c2)C(=O)N([C@H](C)CO)C[C@H](C)[C@@H](CN(C)C(=O)NC2CCCCC2)O3)cc1`, the Potency was “inactive”.
With `COc1cc(C(=O)NCCC(C)C)ccc1OCc1ccc(Cl)cc1Cl` the Potency was inconclusive: 23.1 µM [falling, partial curve, poor fit].
With `Cc1ccc(OCC(=O)Nc2ccc3nc(SCC(=O)N(C)c4ccccc4)sc3c2)cc1` the Potency was inconclusive: 29.1 µM [falling, single point].
For `Cc1cccc(/C(N)=N/OC(=O)c2ccc(Br)o2)c1`, the Potency was inconclusive: 11.6 µM [activator, partial curve, poor fit].
With `N#CC(/C(=N/S(=O)(=O)c1cccs1)c1ccccc1)c1nc2ccccc2[nH]1` (centres undefined) the Potency was inconclusive: 23.1 µM [falling, partial curve, poor fit].
For `CC(=O)C1CCCN(C(=O)c2ccc3nc(Cc4cccc(Cl)c4)oc3c2)C1` (centres undefined), the Potency was “inactive”.
With `Cc1cc2nc(SCCOC(=O)Nc3cccc(Cl)c3)nc(C)c2cc1C` the Potency was inconclusive: 16.4 µM [falling, single point].
For `CCOC(=O)c1cc(-c2ccc(OC)cc2)nn1Cc1ccccc1`, the Potency was inconclusive: 4.61 µM [activator, full curve, poor fit].
For `Cc1ccc(CSc2nc3c(c(=O)[nH]2)C(c2cccc(F)c2F)CC(=O)N3)cc1` (centres undefined), the Potency was “inactive”.
With `CC(Sc1ncnc2ccccc12)C(=O)Nc1ccc2c(c1)OCO2` (centres undefined) the Potency was inconclusive: 18.4 µM [falling, partial curve, poor fit].
With `Cn1ccc(C(=O)Nc2ccc3c(c2)OCCO3)n1` the Potency was inconclusive: 0.13 µM [activator, full curve, poor fit].
In the case of `COc1cc(/C=C/c2ccc3c([N+](=O)[O-])cccc3n2)ccc1OCC(=O)O`, the Potency is reported as “inactive”.
With `CCOc1ccc(S(=O)(=O)N2CCC(C(=O)N3CCOCC3)CC2)cc1C` the Potency was “inactive”.
For `CN(c1cccc(NC(=O)c2ccc(Cl)c(S(=O)(=O)Nc3ccccc3)c2)c1)S(C)(=O)=O`, the Potency was active: 20.6 µM.
For `CCCCNC(=O)N1CCN(c2ncccn2)CC1`, the Potency was inconclusive: 18.4 µM [activator, partial curve, poor fit].
For `O=C(CSc1ccc(F)cc1)NC1CCCCC1`, the Potency was “inactive”.
In the case of `O=[N+]([O-])c1cccc(S(=O)(=O)N2CCN(S(=O)(=O)c3ccc4c(c3)OCCO4)CC2)c1`, the Potency is reported as “inactive”.
In the case of `CN(CC(=O)Nc1cccc(S(=O)(=O)N2CCCC2)c1)Cc1ccccc1`, the Potency is reported as “inactive”.
For `Cn1c(=O)oc2cc(S(=O)(=O)N3CCC(C(=O)N4CCN(c5cccc(Cl)c5)CC4)CC3)ccc21`, the Potency was inconclusive: 29.1 µM [falling, single point].
With `CCn1c(SCc2ccc(C)cc2)nnc1-c1nn(-c2ccccc2)ccc1=O` the Potency was inconclusive: 20.6 µM [falling, partial curve, poor fit].
